Source: PubChem BioAssay AID1224829 (NIAID, 2016)

- Purpose: 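Genes needed for LPS-driven NF-kappaB p65 nuclear entry in mouse macrophages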 (follow-up of hits)
- Cell system: mouse RAW264.7 G9 macrophage reporter cells
- Reagents: single siRNA against mouse genes, 100 nM
- Timing: 2 days of siRNA knock-down, then 40 min of LPS before fixing
- Challenge: LPS (Salmonella minnesota R595) at 10 ng/ml
- Read-out: 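High-content images after 40 min LPS exposure; GFP-p65 nucleus to surrounding ring signal ratio, normalised to plate median and non-targeting control wells, expressed as z-score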
- Direction: p65 translocation z-score: higher = more nuclear NF-kappaB p65 after LPS
- Rule for the call: 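An siRNA is called active when the mean z-score of its two replicates is above 2 or below -2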
- Calls: active = changed p65 translocation (either direction); inactive = no clear change
The whole screen tested about 3,800 reagents; shown is a part drawn at random. 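Calls cover raised and lowered translocation; gene median uses one vendor's three siRNAs; qiagen siRNAs acted more weakly than ambion siRNAs.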 A number with no mark means an inactive call. The numbers tell different reagents against one gene apart. Not all columns of the deposit are shown.

no.	gene	siRNA no.	siRNA vendor or control pool	p65 translocation z-score, replicate mean	p65 translocation z-score, replicate 1
1	Lrrc19 (leucine rich repeat containing 19)	1	ambion single siRNA	-0.991	-0.718
2	Lrrc19 (leucine rich repeat containing 19)	2	ambion single siRNA	-2.18 (active)	-2.2
3	Lrrc19 (leucine rich repeat containing 19)	3	ambion single siRNA	-3.3 (active)	-2.12
4	Etf1 (eukaryotic translation termination factor 1)	1	ambion single siRNA	-0.937	0.421
5	Etf1 (eukaryotic translation termination factor 1)	2	ambion single siRNA	-3.46 (active)	-2.08
6	Etf1 (eukaryotic translation termination factor 1)	3	ambion single siRNA	-3.62 (active)	-3
7	Etf1 (eukaryotic translation termination factor 1)	4	qiagen single siRNA	-0.502	0.00685
8	Etf1 (eukaryotic translation termination factor 1)	5	qiagen single siRNA	-1.94	-1.11
9	Etf1 (eukaryotic translation termination factor 1)	6	qiagen single siRNA	0.388	0.416

Individual results from above:
Under “p65 translocation z-score, replicate mean”, Lrrc19 (leucine rich repeat containing 19) #3, siRNA vendor or control pool ambion single siRNA reads -3.3 (active)
Result for Etf1 (eukaryotic translation termination factor 1) #5, siRNA vendor or control pool qiagen single siRNA under “p65 translocation z-score, replicate 1”: -1.11
Result of Etf1 (eukaryotic translation termination factor 1) #2, siRNA vendor or control pool ambion single siRNA under “p65 translocation z-score, replicate 1”: -2.08 (active)

Additional reagents follow:
no.	gene	siRNA no.	siRNA vendor or control pool	p65 translocation z-score, replicate mean	p65 translocation z-score, replicate 1
10	Med21 (mediator complex subunit 21)	1	ambion single siRNA	-1.97	-3.62
11	Med21 (mediator complex subunit 21)	2	ambion single siRNA	-3.25 (active)	-2.72
12	Med21 (mediator complex subunit 21)	3	ambion single siRNA	-4.3 (active)	-3.87
13	Med21 (mediator complex subunit 21)	4	qiagen single siRNA	0.542	-0.713
14	Med21 (mediator complex subunit 21)	5	qiagen single siRNA	-0.464	0.336
15	Med21 (mediator complex subunit 21)	6	qiagen single siRNA	2.11 (active)	2.11
16	Polr2d (polymerase (RNA) II (DNA directed) polypeptide D)	1	ambion single siRNA	0.304	1.9
17	Polr2d (polymerase (RNA) II (DNA directed) polypeptide D)	2	ambion single siRNA	-9.32 (active)	-9.65
18	Polr2d (polymerase (RNA) II (DNA directed) polypeptide D)	3	ambion single siRNA	-5.53 (active)	-5.25
19	Polr2d (polymerase (RNA) II (DNA directed) polypeptide D)	4	qiagen single siRNA	-1.67	-0.191
20	Polr2d (polymerase (RNA) II (DNA directed) polypeptide D)	5	qiagen single siRNA	-1.43	-0.554
21	Polr2d (polymerase (RNA) II (DNA directed) polypeptide D)	6	qiagen single siRNA	-6.28 (active)	-6.28
